Measured values from the supplement of paper PMC3334620.
The full ranking holds about 33,000 sequences; the median of “E-score (-0.5 to 0.5)” is about -0.016, and the highest 2% start at about 0.3. The list shows a part of the results.

target: T1, Yer184c (UniProt P39961); experiment: PBM E-score (8-mer binding enrichment) (E-score (-0.5 to 0.5)); higher = stronger / more preferred TF binding; details: protein concentration: 100 nM; construct: GST-full length
T1 sequence: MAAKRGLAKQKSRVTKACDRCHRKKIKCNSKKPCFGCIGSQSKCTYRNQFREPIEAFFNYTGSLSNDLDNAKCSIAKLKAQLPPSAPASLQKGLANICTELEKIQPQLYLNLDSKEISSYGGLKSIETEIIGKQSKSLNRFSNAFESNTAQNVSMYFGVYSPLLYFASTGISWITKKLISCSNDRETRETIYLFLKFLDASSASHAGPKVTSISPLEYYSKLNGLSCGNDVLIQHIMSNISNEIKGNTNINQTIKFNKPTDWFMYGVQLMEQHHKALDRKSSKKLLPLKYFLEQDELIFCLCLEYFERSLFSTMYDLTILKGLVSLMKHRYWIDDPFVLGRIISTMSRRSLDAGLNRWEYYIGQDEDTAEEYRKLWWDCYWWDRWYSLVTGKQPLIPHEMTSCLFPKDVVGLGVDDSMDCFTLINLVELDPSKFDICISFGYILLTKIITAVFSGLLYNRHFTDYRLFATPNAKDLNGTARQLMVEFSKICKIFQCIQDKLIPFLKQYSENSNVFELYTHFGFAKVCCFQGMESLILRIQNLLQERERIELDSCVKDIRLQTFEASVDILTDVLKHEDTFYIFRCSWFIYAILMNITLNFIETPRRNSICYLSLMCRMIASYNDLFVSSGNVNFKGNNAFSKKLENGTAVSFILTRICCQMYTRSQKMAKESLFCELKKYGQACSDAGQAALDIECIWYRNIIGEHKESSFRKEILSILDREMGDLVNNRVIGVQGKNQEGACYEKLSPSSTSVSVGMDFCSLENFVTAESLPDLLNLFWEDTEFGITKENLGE
Procedure: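 Universal 'all 10-mer' protein binding microarrays (Agilent AMADID 015681) probed with GST-tagged S. cerevisiae TFs (full-length or DBD) made by in vitro transcription/translation (PURExpress), about 100-200 nM. Bound TF was detected with fluorescent anti-GST. Each ungapped 8-mer (which stands for itself and its reverse complement) is scored by the PBM enrichment score (E-score), a modified Wilcoxon-Mann-Whitney statistic from -0.5 to +0.5, computed with the Universal PBM Analysis Suite. Scale: above 0.35 generally sequence-specific binding.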

In order of rising “PBM E-score” value:
1. CAGGGGGG  -0.447
2. CGCTCCCC  -0.337
3. GGGGATCA  -0.321
4. AGGCGTCA  -0.298
5. AGAGGGGA  -0.286
6. GTCCCTGA  -0.278
7. AGGGTCAG  -0.273
8. GGTAGCTA  -0.271
9. CGTCACCC  -0.257
10. ACCTGACC  -0.256
11. CAGAGGGA  -0.254
12. AGGGCTAG  -0.243
13. ACTCAGTG  -0.237
14. ACAGCTAG  -0.233
15. ACTATCCT  -0.225
16. CATAGTGG  -0.224
17. AGTCGTTG  -0.222
18. AGCCTGGA  -0.221
19. ACACAGGG  -0.213
20. AGTCGAGG  -0.209
21. CTCTGGTA  -0.203
22. CGATGCAG  -0.202
23. ATAAGGGG  -0.2
24. CTCTACGA  -0.197
25. CAGCGACA  -0.194
26. AACCTGAA  -0.192
27. ATGACTGG  -0.184
28. CTTACGCA  -0.183
29. AGATCGTC  -0.181
30. AGTCCTGG  -0.181
31. AGGTGGGG  -0.17
32. AGACTACA  -0.165
33. ACCAACTG  -0.164
34. GACCCATC  -0.16
35. CCAACTAG  -0.157
36. ACCACTAT  -0.156
37. CCACGCTA  -0.148
38. ATCCACTG  -0.143
39. CATGGCAA  -0.141
40. CGTGGGAA  -0.137
41. CTAAGGAC  -0.135
42. ACGCTTAG  -0.132
43. ACCCAGCG  -0.131
44. AGCCGCAG  -0.13
45. CACATCCC  -0.128
46. CAAAGATG  -0.128
47. TCCTCGCA  -0.124
48. AGGTGTTC  -0.121
49. ACTTCCTG  -0.118
50. CCAGCTCG  -0.117
51. CGAGGGCG  -0.112
52. AAGGGATT  -0.111
53. GTAGACTA  -0.11
54. ACTTACCA  -0.108
55. AAAGTCCC  -0.107
56. CCTACCGC  -0.106
57. CCAATTGC  -0.105
58. ACCTTGCT  -0.104
59. ACAAGCCT  -0.102
60. GAGAGACA  -0.101
61. AGGAAAGA  -0.0951
62. AGATAAGG  -0.0938
63. GACCCCAC  -0.0899
64. AGCACTCG  -0.0898
65. ACCCCGAC  -0.0878
66. GGCGATAA  -0.0853
67. ACAGGTTG  -0.0831
68. GAGCTATC  -0.081
69. ACCATATC  -0.0788
70. GGGCTTGA  -0.0787
71. CCTTATGC  -0.0769
72. CCACTAAC  -0.0716
73. AATCCCTA  -0.0697
74. ACCCGTCG  -0.0686
75. ACTTATCA  -0.067
76. CAGCTTGA  -0.0644
77. CTGCTGCA  -0.0619
78. CATAGCGA  -0.0576
79. ACGCAAGA  -0.0555
80. AGGGTAAT  -0.053
81. CAGTGTCA  -0.0526
82. ACTGTACC  -0.0502
83. GTCTCACA  -0.0501
84. CTTGCATA  -0.0489
85. CAAGTAGA  -0.0482
86. TAGACACA  -0.0462
87. AATCGTCT  -0.0451
88. ATTAGCGA  -0.0417
89. CCCTGTAA  -0.0416
90. AGAATATA  -0.0416
91. CACCGTCG  -0.0401
92. CGGAGGCC  -0.0369
93. AACGGGCA  -0.0355
94. CCATCCTC  -0.0331
95. CACTGGCA  -0.033
96. AGCCGTGG  -0.0282
97. TCTTACCA  -0.0281
98. CAGGTTCG  -0.0267
99. CGCATCTC  -0.0244
100. AGTGTATG  -0.0241
101. CGGGGACC  -0.0241
102. ATATGGAT  -0.0237
103. GTCTGCAA  -0.0236
104. AAGCATTC  -0.0221
105. ATGTCGCA  -0.0211
106. TACATAGA  -0.0207
107. AGCCTCCG  -0.0175
108. AAAGTCCA  -0.0162
109. ACTGAGGA  -0.0152
110. ACTTGTCC  -0.0136
111. AAAAAGCT  -0.0116
112. ATATTCTG  -0.0103
113. AGGTTAAA  -0.00589
114. ATGGAAAG  -0.00552
115. AGAAGCAG  -0.00452
116. CAAAGCAC  -0.00373
117. ATACGCGC  -0.00369
118. CTAGGAAA  -0.0006
119. ACTTTACG  0.00111
120. TATGCAAA  0.00152
121. GCCTCAAC  0.00399
122. GATAGAGC  0.00418
123. GCAGTTCC  0.00809
124. ACGATTCA  0.0112
125. CACAGTTC  0.012
126. AGCTATTG  0.013
127. GATTGGAA  0.0146
128. AAAATGGC  0.0159
129. GCGATATA  0.0164
130. GACGAGGA  0.0167
131. CACTTTCG  0.0177
132. AGTTTGAC  0.0194
133. CCTCGTCA  0.02
134. ATTTATGC  0.0222
135. TGCATGAA  0.023
136. CCATTTAC  0.0263
137. GGCCGACC  0.028
138. AGGGACGA  0.0287
139. AGCAGATA  0.0297
140. TCTATCCA  0.0326
141. AATTAGAG  0.0326
142. AATGCATC  0.033
143. AGGTATAT  0.0334
144. CCTTGGGA  0.035
145. CCACTTCC  0.0378
146. GACTCAAC  0.0381
147. ACAAGGTG  0.0514
148. TAGTGACA  0.053
149. ATTTAGCC  0.0558
150. CTGTCTTC  0.0575
151. ATTCTCAA  0.0586
152. AAATGCTA  0.0591
153. GTCCAGAA  0.0596
154. AATACGTC  0.0603
155. AAGTCATA  0.0621
156. TAATGCCA  0.0632
157. AAAGAGGT  0.0641
158. GAATCAAA  0.0657
159. CTAGTTGA  0.0658
160. ATCAAGAC  0.0705
161. AAGTAGAC  0.0714
162. ACTTCGGG  0.0741
163. AAGAAGAA  0.0751
164. GAACGAAC  0.0755
165. CTAAGGTA  0.0764
166. TCCTCAAA  0.0776
167. CCGTCCCG  0.0888
168. CGGGCTAA  0.0904
169. GACAAAAC  0.0933
170. AAAAACAC  0.0944
171. TGCCAAAA  0.097
172. CTCACTAC  0.104
173. GACATTAC  0.105
174. CGGCACGC  0.106
175. AGTCTAAG  0.109
176. CTCAACTA  0.112
177. TGCATTAA  0.12
178. CGTAATCC  0.12
179. AAAGTTCA  0.125
180. GAGATGGC  0.128
181. ATATATGG  0.128
182. GTATTAAC  0.133
183. AGTACATA  0.137
184. CTATTGAA  0.142
185. CGCAGAAC  0.148
186. GCAACCGC  0.149
187. TTAAGTAA  0.149
188. ACACAGAC  0.153
189. AACTTTGA  0.154
190. CATTTCGG  0.157
191. TATCGCGA  0.159
192. AGACAGAC  0.161
193. TCATACAA  0.168
194. CCGTTTCA  0.17
195. TAGCGGAA  0.177
196. AGTTGTCA  0.179
197. TGCTGTAA  0.182
198. TAATAGAA  0.187
199. ATATAGAA  0.188
200. ATTACATC  0.189
201. GCGGCGGA  0.193
202. ATGATGAA  0.194
203. CCCGAATA  0.196
204. ATACTTAC  0.197
205. AAATTATT  0.212
206. GAAACACA  0.212
207. GATACAAC  0.213
208. ATTTACGG  0.216
209. TTCAACAA  0.239
210. ATTTTGAA  0.255
211. GATACTAA  0.263
212. CCGGCAAC  0.293
213. ACGGATAA  0.299
214. AGGCCGAA  0.302
215. AACCGGCG  0.306
216. CGCGGAAA  0.325
217. GCCGAACA  0.329
218. ATTCCGAG  0.353
219. CGGAACAC  0.356
